Test results from PubChem BioAssay AID330 (DTP/NCI, 2004).
The list shows only some results of the screen, not a fair sample: it gathers tests that were run many times, whatever their T/C, doses with no T/C, and many T/C values between a quarter and a half above the control. Other doses and runs of a compound stand elsewhere. T/C is the treated group as % of the vehicle group. Some doses have a count of surviving animals in place of a T/C: the source holds a T/C of zero for them, seemingly a mark for toxic or unscored doses. Some survivor counts are full or nearly so, which does not show that the dose was tolerated: survival well below the control is almost never listed, so the zero probably covers shortened survival too. Survivors were counted at the toxicity check, usually on the fifth day, unless a day is given; later deaths do not show. Schedules are NCI's codes, read here as Q, the interval in days (D) or hours (H), X, the number of doses. For survival time, the PubChem record calls one and a half times the control and up active, and a quarter to a half above the control has no call in these data; cut-offs in other NCI protocols can differ. Some entries were tested several times; their values stand side by side, smallest first. Some T/C values are followed by the survivors on the day toxicity was checked, most often the fifth; where none is given, no animal had died by that day.

Tested on: P388 leukemia ip, CD2F1 mice, survival T/C
Test: NCI In Vivo Anticancer Drug Screen. Data for tumor model P388 Leukemia (intraperitoneal) in CD2F1 (CDF1) mice
Conditions: T/C endpoint: median survival time, higher T/C = longer survival
[1] = dose: 100.0 mg/kg/injection, schedule: Q01DX009 (ip), vehicle: saline
[2] = dose: 25.0 mg/kg/injection, schedule: Q01DX005 (ip), vehicle: saline with Tween-80
[3] = dose: 50.0 mg/kg/injection, schedule: Q01DX005 (ip), vehicle: saline with Tween-80
[4] = dose: 200.0 mg/kg/injection, schedule: Q01DX005 (ip), vehicle: saline with Tween-80
[5] = dose: 400.0 mg/kg/injection, schedule: Q01DX005 (ip), vehicle: saline with Tween-80
[6] = dose: 25.0 mg/kg/injection, schedule: Q01DX009 (ip), vehicle: Klucel (hydroxypropylcellulose) (HPC)
[7] = dose: 100.0 mg/kg/injection, schedule: Q01DX009 (ip), vehicle: Klucel (hydroxypropylcellulose) (HPC)
[8] = dose: 100.0 mg/kg/injection, schedule: Q01DX005 (ip), vehicle: saline with Tween-80
[9] = dose: 200.0 mg/kg/injection, schedule: Q01DX009 (ip), vehicle: saline with Tween-80
[10] = dose: 200.0 mg/kg/injection, schedule: Q01DX001 (ip), vehicle: saline
[11] = dose: 100.0 mg/kg/injection, schedule: Q01DX005 (ip), vehicle: Klucel (hydroxypropylcellulose) (HPC)
[12] = dose: 200.0 mg/kg/injection, schedule: Q01DX005 (ip), vehicle: Klucel (hydroxypropylcellulose) (HPC)
[13] = dose: 20.0 mg/kg/injection, schedule: Q01DX009 (ip), vehicle: saline with Tween-80

In the case of `COc1cc([C@@H]2c3cc4c(cc3[C@H](SC(=N)N)[C@H]3COC(=O)[C@H]23)OCO4)cc(OC)c1OC`, the survivor count (dose: 80.0 mg/kg/injection, schedule: Q01DX010 (ip), vehicle: carboxymethylcellulose (CMC)) is reported as 0 of 6 and the survivor count (dose: 160.0 mg/kg/injection, schedule: Q01DX010 (ip), vehicle: carboxymethylcellulose (CMC)) is reported as 0 of 6.
For `COc1ccc(-c2cc3cc(OC)c(OC)cc3cn2)cc1OC`, the survivor count [1] was 6 of 6.
For `CN1CCN(CC2CCOc3cc(Cl)ccc3C2=O)CC1` (stereo unspecified), the survivor count (dose: 400.0 mg/kg/injection, schedule: Q04DX003 (ip), vehicle: saline) was 2 of 6.
In the case of `O=C(Nc1ccccc1)c1c(O)[nH]c(=O)[nH]c1=O`, the T/C [2] is reported as 134 % of control, the T/C [3] is reported as 126 and 134 % of control and the survivor count [4] is reported as 6 of 6. For the same compound, the T/C [5] was 133 % of control [5 of 6 alive] and the survivor count [5] was 4 of 6.
For `C=C(Cl)C(O)CNCCCC` (stereo unspecified), the survivor count [4] was 3 of 5.
`O=[N+]([O-])c1ccc(O)c(/C=N\NS(=O)(=O)c2ccc(F)cc2)c1` was tested, and the survivor count [4] was 1 of 6.
`CN1c2ccccc2SC1(C)CCC(=O)O` (stereo unspecified) was tested, and the survivor count (dose: 240.0 mg/kg/injection, schedule: Q01DX005 (ip), vehicle: Klucel (hydroxypropylcellulose) (HPC)) was 1 of 6.
For `O=C1C=C(C2=C(O)c3ccccc3C2=O)c2ccccc21` (tested in a mixture with another compound), the survivor count (dose: 200.0 mg/kg/injection, schedule: Q01DX009 (ip), vehicle: Klucel (hydroxypropylcellulose) (HPC)) was 0 of 6.
With `O=C(CCl)NNC(=O)CCl` the survivor count (dose: 6.25 mg/kg/injection, schedule: Q01DX009 (ip), vehicle: Klucel (hydroxypropylcellulose) (HPC)) was 0 of 6, the T/C (dose: 12.5 mg/kg/injection, schedule: Q01DX009 (ip), vehicle: Klucel (hydroxypropylcellulose) (HPC)) was 127 % of control and the T/C [6] was 127 % of control [5 of 6 alive]. For the same compound, the survivor count [6] was 0 of 6, the survivor count (dose: 50.0 mg/kg/injection, schedule: Q01DX009 (ip), vehicle: Klucel (hydroxypropylcellulose) (HPC)) was 0 of 6 and the survivor count [7] was 0 of 6.
`COC1=Nc2ccccc2N2CCN=C12` was tested, and the survivor count [1] was 5 of 6.
With `Cc1cc(C)c(C#N)c(NN)n1` the survivor count [2] was 2 of 5, the survivor count [3] was 2 of 5 and the survivor count [8] was 0 of 5. The survivor count [4] was 0 of 5.
With `CCCCN(CCCC)CCC(O)c1cc2c(Cl)cc(Cl)cc2c2cc(C(F)(F)F)ccc12` (stereo unspecified) the survivor count [9] was 6 of 6.
In the case of `COC(=O)C1CCC[P+]1(C)C` (stereo unspecified), the survivor count [10] is reported as 6 of 6.
With `CCCCCCCCCSc1nc2ccc(N=Cc3ccccc3O)cc2s1` the survivor count [7] was 6 of 6.
In the case of `CCN(CC)CCOC(=O)Cc1ccc2c(=O)cc(-c3ccc(C)cc3)oc2c1`, the T/C [11] is reported as 138 % of control and the survivor count [12] is reported as 1 of 6.
`Cc1cc(C)nc(NC(N)=NCCc2ccccc2)n1` was tested, and the survivor count (dose: 100.0 mg/kg/injection, schedule: Q04DX003 (ip), vehicle: saline with Tween-80) was 6 of 6, the survivor count (dose: 200.0 mg/kg/injection, schedule: Q04DX003 (ip), vehicle: saline with Tween-80) was 6 of 6 and the survivor count (dose: 400.0 mg/kg/injection, schedule: Q04DX003 (ip), vehicle: saline with Tween-80) was 3 of 6.
With `CC1(C)C(=O)C(C)(C)C1O` the survivor count (dose: 400.0 mg/kg/injection, schedule: Q01DX009 (ip), vehicle: saline) was 1 of 6.
In the case of `Cc1ccc([N+](=O)[O-])c2ccccc12`, the survivor count (dose: 400.0 mg/kg/injection, schedule: Q01DX009 (ip), vehicle: saline with Tween-80) is reported as 3 of 6.
`CC[N+]1(CC)c2ccccc2CC1C` (stereo unspecified) was tested, and the survivor count (dose: 100.0 mg/kg/injection, schedule: Q01DX001 (ip), vehicle: saline) was 0 of 6, the survivor count [10] was 0 of 6 and the survivor count (dose: 400.0 mg/kg/injection, schedule: Q01DX001 (ip), vehicle: saline) was 0 of 6.
In the case of `CCCCCCCCCCCC(=O)c1c(O)c2ccccc2oc1=O`, the survivor count [4] is reported as 3 of 6.
In the case of `CN(C)CCNc1cccc2sc3ccc(O)cc3c(=O)c12`, the T/C [8] is reported as 125 [5 of 6 alive] and 146 % of control and the T/C [4] is reported as 136 % of control.
`CC(C)[CH2][Sn](=[O])[c]1ccccc1` was tested, and the survivor count (dose: 3.12 mg/kg/injection, schedule: Q01DX009 (ip), vehicle: saline with Tween-80) was 3 of 6, the survivor count (dose: 6.25 mg/kg/injection, schedule: Q01DX009 (ip), vehicle: saline with Tween-80) was 1 of 6 and the survivor count (dose: 12.5 mg/kg/injection, schedule: Q01DX009 (ip), vehicle: saline with Tween-80) was 0 of 6. For the same compound, the survivor count (dose: 50.0 mg/kg/injection, schedule: Q01DX009 (ip), vehicle: saline with Tween-80) was 0 of 6, the survivor count (dose: 100.0 mg/kg/injection, schedule: Q01DX009 (ip), vehicle: saline with Tween-80) was 0 of 6 and the survivor count [9] was 0 of 6.
In the case of `Cc1ccc(NCC2CCCN3CCCCC23)c2c(=O)c3cc(O)ccc3sc12` (stereo unspecified), the survivor count (dose: 400.0 mg/kg/injection, schedule: Q04DX002 (ip), vehicle: saline with Tween-80) is reported as 3 of 6.
In the case of `CC1=CC(=O)C(O)C2(C)C1CC1OC(=O)CC3C(C)C(O)C4(O)OCC13C42` (stereo unspecified), the T/C (dose: 40.0 mg/kg/injection, schedule: Q01DX009 (ip), vehicle: Klucel (hydroxypropylcellulose) (HPC)) is reported as 145 % of control.
For `COc1cccc2c1C(=O)c1c(O)c3c(c(O)c1C2=O)C[C@@](O)(/C(C)=N/N1CCCCC1)C[C@@H]3OC1CC(N)C(O)C(C)O1` (stereo partly specified), the T/C (dose: 0.62 mg/kg/injection, schedule: Q01DX009 (ip), vehicle: saline) was 139 and 145 % of control, the T/C (dose: 1.25 mg/kg/injection, schedule: Q01DX009 (ip), vehicle: saline) was 129 % of control and the survivor count (dose: 2.5 mg/kg/injection, schedule: Q01DX009 (ip), vehicle: saline) was 3 of 6. The T/C (dose: 5.0 mg/kg/injection, schedule: Q01DX009 (ip), vehicle: saline) was 136 % of control.
In the case of `Nc1ccc(Cn2ccc3c4c(N)nc(N)nc4ccc32)cc1`, the T/C (dose: 5.0 mg/kg/injection, schedule: Q01DX009 (ip), vehicle: saline with Tween-80) is reported as 133 and 144 % of control, the T/C (dose: 10.0 mg/kg/injection, schedule: Q01DX009 (ip), vehicle: saline with Tween-80) is reported as 135 % of control and the T/C [13] is reported as 144 % of control. For the same compound, the survivor count [13] was 2 of 6 and the survivor count (dose: 40.0 mg/kg/injection, schedule: Q01DX009 (ip), vehicle: saline with Tween-80) was 2 of 6.
With `C[CH2][Sn]1([Cl])[O]CCNCC[O]1` the T/C [11] was 125 % of control and the T/C [12] was 129 % of control.
`C/C=C/C(C#N)OC(C)=O` (stereo unspecified) was tested, and the survivor count (dose: 15.0 mg/kg/injection, schedule: Q01DX005 (ip), vehicle: saline) was 0 of 6, the survivor count (dose: 30.0 mg/kg/injection, schedule: Q01DX005 (ip), vehicle: saline) was 0 of 6 and the survivor count (dose: 60.0 mg/kg/injection, schedule: Q01DX005 (ip), vehicle: saline) was 0 of 6. The survivor count (dose: 120.0 mg/kg/injection, schedule: Q01DX005 (ip), vehicle: saline) was 0 of 6 and the survivor count (dose: 240.0 mg/kg/injection, schedule: Q01DX005 (ip), vehicle: saline) was 0 of 6.
`Cn1c2ccccc2c(=Nc2ccc(S(=O)(=O)N=C(N)N)cc2)c2ccccc21` was tested, and the survivor count [4] was 3 of 6.
`CCN1CCn2c(c(COC(=O)NC(C)C)c(COC(=O)NC(C)C)c2-c2ccc(Cl)c(Cl)c2)C1` was tested, and the T/C (dose: 50.0 mg/kg/injection, schedule: Q01DX009 (ip), vehicle: distilled water + Tween-80) was 133 % of control, the T/C (dose: 75.0 mg/kg/injection, schedule: Q01DX009 (ip), vehicle: distilled water + Tween-80) was 134 % of control and the T/C (dose: 100.0 mg/kg/injection, schedule: Q01DX009 (ip), vehicle: distilled water + Tween-80) was 145 % of control. The T/C (dose: 150.0 mg/kg/injection, schedule: Q01DX009 (ip), vehicle: distilled water + Tween-80) was 142 % of control [5 of 6 alive] and the survivor count (dose: 300.0 mg/kg/injection, schedule: Q01DX009 (ip), vehicle: distilled water + Tween-80) was 3 of 6.
For `COn1c2ccccc2c2c1cc1ccccc1[n+]2[O-]`, the survivor count (dose: 50.0 mg/kg/injection, schedule: Q01DX005 (ip), vehicle: Klucel (hydroxypropylcellulose) (HPC)) was 6 of 6.
